# Experimental data: article doi:10.1101/2025.02.07.636106
# Amino acid sequences for entries named in this document (tags omitted). Residues count along the entry.
# UniProt Q9P0T7, residues 21-183: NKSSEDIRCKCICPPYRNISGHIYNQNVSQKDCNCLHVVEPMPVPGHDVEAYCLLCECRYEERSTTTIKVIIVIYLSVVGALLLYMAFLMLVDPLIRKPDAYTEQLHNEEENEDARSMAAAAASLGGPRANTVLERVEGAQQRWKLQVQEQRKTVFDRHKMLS
# These are yes or no findings as the source states them, for the method shown. In cells and extracts the contact can be indirect. A yes stands for co-enrichment or nearness to the bait. Other partners may have been found. For some assays here: Sequences can lack the tags named with a protein.
# B1: ATP11B (protein, UniProt Q9Y2G3 1-1177)
# chain: MWRWIRQQLGFDPPHQSDTRTIYVANRFPQNGLYTPQKFIDNRIISSKYTVWNFVPKNLFEQFRRVANFYFLIIFLVQLMIDTPTSPVTSGLPLFFVITVTAIKQGYEDWLRHNSDNEVNGAPVYVVRSGGLVKTRSKNIRVGDIVRIAKDEIFPADLVLLSSDRLDGSCHVTTASLDGETNLKTHVAVPETALLQTVANLDTLVAVIECQQPEADLYRFMGRMIITQQMEEIVRPLGPESLLLRGARLKNTKEIFGVAVYTGMETKMALNYKSKSQKRSAVEKSMNTFLIIYLVILISEAVISTILKYTWQAEEKWDEPWYNQKTEHQRNSSKILRFISDFLAFLVLYNFIIPISLYVTVEMQKFLGSFFIGWDLDLYHEESDQKAQVNTSDLNEELGQVEYVFTDKTGTLTENEMQFRECSINGMKYQEINGRLVPEGPTPDSSEGNLSYLSSLSHLNNLSHLTTSSSFRTSPENETELIKEHDLFFKAVSLCHTVQISNVQTDCTGDGPWQSNLAPSQLEYYASSPDEKALVEAAARIGIVFIGNSEETMEVKTLGKLERYKLLHILEFDSDRRRMSVIVQAPSGEKLLFAKGAESSILPKCIGGEIEKTRIHVDEFALKGLRTLCIAYRKFTSKEYEEIDKRIFEARTALQQREEKLAAVFQFIEKDLILLGATAVEDRLQDKVRETIEALRMAGIKVWVLTGDKHETAVSVSLSCGHFHRTMNILELINQKSDSECAEQLRQLARRITEDHVIQHGLVVDGTSLSLALREHEKLFMEVCRNCSAVLCCRMAPLQKAKVIRLIKISPEKPITLAVGDGANDVSMIQEAHVGIGIMGKEGRQAARNSDYAIARFKFLSKLLFVHGHFYYIRIATLVQYFFYKNVCFITPQFLYQFYCLFSQQTLYDSVYLTLYNICFTSLPILIYSLLEQHVDPHVLQNKPTLYRDISKNRLLSIKTFLYWTILGFSHAFIFFFGSYLLIGKDTSLLGNGQMFGNWTFGTLVFTVMVITVTVKMALETHFWTWINHLVTWGSIIFYFVFSLFYGGILWPFLGSQNMYFVFIQLLSSGSAWFAIILMVVTCLFLDIIKKVFDRHLHPTSTEKAQLTETNAGIKCLDSMCCFPEGEAACASVGRMLERVIGRCSPTHISRSWSASDPFYTNDRSILTLSTMDSSTC
# B2: ATP8A1 (protein, UniProt Q9Y2Q0 1-1164)
# chain: MPTMRRTVSEIRSRAEGYEKTDDVSEKTSLADQEEVRTIFINQPQLTKFCNNHVSTAKYNIITFLPRFLYSQFRRAANSFFLFIALLQQIPDVSPTGRYTTLVPLLFILAVAAIKEIIEDIKRHKADNAVNKKQTQVLRNGAWEIVHWEKVAVGEIVKVTNGEHLPADLISLSSSEPQAMCYIETSNLDGETNLKIRQGLPATSDIKDVDSLMRISGRIECESPNRHLYDFVGNIRLDGHGTVPLGADQILLRGAQLRNTQWVHGIVVYTGHDTKLMQNSTSPPLKLSNVERITNVQILILFCILIAMSLVCSVGSAIWNRRHSGKDWYLNLNYGGASNFGLNFLTFIILFNNLIPISLLVTLEVVKFTQAYFINWDLDMHYEPTDTAAMARTSNLNEELGQVKYIFSDKTGTLTCNVMQFKKCTIAGVAYGHVPEPEDYGCSPDEWQNSQFGDEKTFSDSSLLENLQNNHPTAPIICEFLTMMAVCHTAVPEREGDKIIYQAASPDEGALVRAAKQLNFVFTGRTPDSVIIDSLGQEERYELLNVLEFTSARKRMSVIVRTPSGKLRLYCKGADTVIYDRLAETSKYKEITLKHLEQFATEGLRTLCFAVAEISESDFQEWRAVYQRASTSVQNRLLKLEESYELIEKNLQLLGATAIEDKLQDQVPETIETLMKADIKIWILTGDKQETAINIGHSCKLLKKNMGMIVINEGSLDGTRETLSRHCTTLGDALRKENDFALIIDGKTLKYALTFGVRQYFLDLALSCKAVICCRVSPLQKSEVVEMVKKQVKVVTLAIGDGANDVSMIQTAHVGVGISGNEGLQAANSSDYSIAQFKYLKNLLMIHGAWNYNRVSKCILYCFYKNIVLYIIEIWFAFVNGFSGQILFERWCIGLYNVMFTAMPPLTLGIFERSCRKENMLKYPELYKTSQNALDFNTKVFWVHCLNGLFHSVILFWFPLKALQYGTAFGNGKTSDYLLLGNFVYTFVVITVCLKAGLETSYWTWFSHIAIWGSIALWVVFFGIYSSLWPAIPMAPDMSGEAAMLFSSGVFWMGLLFIPVASLLLDVVYKVIKRTAFKTLVDEVQELEAKSQDPGAVVLGKSLTERAQLLKNVFKKNHVNLYRSESLQQNLLHGYAFSQDENGIVSQSEVIRAYDTTKQRPDEW
# B3: ATP8A2 (protein, UniProt Q9NTI2 1-1188)
# chain: MLNGAGLDKALKMSLPRRSRIRSSVGPVRSSLGYKKAEDEMSRATSVGDQLEAPARTIYLNQPHLNKFRDNQISTAKYSVLTFLPRFLYEQIRRAANAFFLFIALLQQIPDVSPTGRYTTLVPLIIILTIAGIKEIVEDFKRHKADNAVNKKKTIVLRNGMWHTIMWKEVAVGDIVKVVNGQYLPADVVLLSSSEPQAMCYVETANLDGETNLKIRQGLSHTADMQTREVLMKLSGTIECEGPNRHLYDFTGNLNLDGKSLVALGPDQILLRGTQLRNTQWVFGIVVYTGHDTKLMQNSTKAPLKRSNVEKVTNVQILVLFGILLVMALVSSAGALYWNRSHGEKNWYIKKMDTTSDNFGYNLLTFIILYNNLIPISLLVTLEVVKYTQALFINWDTDMYYIGNDTPAMARTSNLNEELGQVKYLFSDKTGTLTCNIMNFKKCSIAGVTYGHFPELAREPSSDDFCRMPPPCSDSCDFDDPRLLKNIEDRHPTAPCIQEFLTLLAVCHTVVPEKDGDNIIYQASSPDEAALVKGAKKLGFVFTARTPFSVIIEAMGQEQTFGILNVLEFSSDRKRMSVIVRTPSGRLRLYCKGADNVIFERLSKDSKYMEETLCHLEYFATEGLRTLCVAYADLSENEYEEWLKVYQEASTILKDRAQRLEECYEIIEKNLLLLGATAIEDRLQAGVPETIATLLKAEIKIWVLTGDKQETAINIGYSCRLVSQNMALILLKEDSLDATRAAITQHCTDLGNLLGKENDVALIIDGHTLKYALSFEVRRSFLDLALSCKAVICCRVSPLQKSEIVDVVKKRVKAITLAIGDGANDVGMIQTAHVGVGISGNEGMQATNNSDYAIAQFSYLEKLLLVHGAWSYNRVTKCILYCFYKNVVLYIIELWFAFVNGFSGQILFERWCIGLYNVIFTALPPFTLGIFERSCTQESMLRFPQLYKITQNGEGFNTKVFWGHCINALVHSLILFWFPMKALEHDTVLTSGHATDYLFVGNIVYTYVVVTVCLKAGLETTAWTKFSHLAVWGSMLTWLVFFGIYSTIWPTIPIAPDMRGQATMVLSSAHFWLGLFLVPTACLIEDVAWRAAKHTCKKTLLEEVQELETKSRVLGKAVLRDSNGKRLNERDRLIKRLGRKTPPTLFRGSSLQQGVPHGYAFSQEEHGAVSQEEVIRAYDTTKKKSRKK
# B4: TMEM30A (protein, UniProt Q9NV96 1-361)
# chain: MAMNYNAKDEVDGGPPCAPGGTAKTRRPDNTAFKQQRLPAWQPILTAGTVLPIFFIIGLIFIPIGIGIFVTSNNIREIEIDYTGTEPSSPCNKCLSPDVTPCFCTINFTLEKSFEGNVFMYYGLSNFYQNHRRYVKSRDDSQLNGDSSALLNPSKECEPYRRNEDKPIAPCGAIANSMFNDTLELFLIGNDSYPIPIALKKKGIAWWTDKNVKFRNPPGGDNLEERFKGTTKPVNWLKPVYMLDSDPDNNGFINEDFIVWMRTAALPTFRKLYRLIERKSDLHPTLPAGRYSLNVTYNYPVHYFDGRKRMILSTISWMGGKNPFLGIAYIAVGSISFLLGVVLLVINHKYRNSSNTADITI
# B5: CLCN5 (protein, UniProt P51795 1-816)
# chain: MAMWQGAMDNRGFQQGSFSSFQNSSSDEDLMDIPATAMDFSMRDDVPPLDREVGEDKSYNGGGIGSSNRIMDFLEEPIPGVGTYDDFNTIDWVREKSRDRDRHREITNKSKESTWALIHSVSDAFSGWLLMLLIGLLSGSLAGLIDISAHWMTDLKEGICTGGFWFNHEHCCWNSEHVTFEERDKCPEWNSWSQLIISTDEGAFAYIVNYFMYVLWALLFAFLAVSLVKVFAPYACGSGIPEIKTILSGFIIRGYLGKWTLVIKTITLVLAVSSGLSLGKEGPLVHVACCCGNILCHCFNKYRKNEAKRREVLSAAAAAGVSVAFGAPIGGVLFSLEEVSYYFPLKTLWRSFFAALVAAFTLRSINPFGNSRLVLFYVEFHTPWHLFELVPFILLGIFGGLWGALFIRTNIAWCRKRKTTQLGKYPVIEVLVVTAITAILAFPNEYTRMSTSELISELFNDCGLLDSSKLCDYENRFNTSKGGELPDRPAGVGVYSAMWQLALTLILKIVITIFTFGMKIPSGLFIPSMAVGAIAGRLLGVGMEQLAYYHQEWTVFNSWCSQGADCITPGLYAMVGAAACLGGVTRMTVSLVVIMFELTGGLEYIVPLMAAAMTSKWVADALGREGIYDAHIRLNGYPFLEAKEEFAHKTLAMDVMKPRRNDPLLTVLTQDSMTVEDVETIISETTYSGFPVVVSRESQRLVGFVLRRDLIISIENARKKQDGVVSTSIIYFTEHSPPLPPYTPPTLKLRNILDLSPFTVTDLTPMEIVVDIFRKLGLRQCLVTHNGRLLGIITKKDVLKHIAQMANQDPDSILFN
# B6: TMEM9B (protein, UniProt Q9NQ34 34-198)
# chain: AKNFEDVRCKCICPPYKENSGHIYNKNISQKDCDCLHVVEPMPVRGPDVEAYCLRCECKYEERSSVTIKVTIIIYLSILGLLLLYMVYLTLVEPILKRRLFGHAQLIQSDDDIGDHQPFANAHDVLARSRSRANVLNKVEYAQQRWKLQVQEQRKSVFDRHVVLS
# Assays:
# [1] = target: T1, TMEM230 (human (endogenous in HEK293 and in H9-derived iNeurons)) (UniProt Q96A57); assay: affinity purification with mass spectrometry; anti-TMEM230 immune complexes from WT H9 iNeurons compared to H9-TMEM230-/- iNeurons; 0.5% DDM extraction; TMT-MS
# T1 sequence: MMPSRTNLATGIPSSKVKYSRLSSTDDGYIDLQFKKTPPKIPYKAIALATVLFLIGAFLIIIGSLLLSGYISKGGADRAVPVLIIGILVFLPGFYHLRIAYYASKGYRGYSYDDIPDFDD
# HA-TMEM230(Y29C) (human) = target: T2, HA-TMEM230(Y29C) (human) (UniProt Q96A57); assay: affinity purification with mass spectrometry; TMEM230 immunoprecipitations from H9-TMEM230-/- iNeurons with or without lentiviral expression of WT and variant HA-TMEM230; 0.5% DDM extraction; TMT-MS
# T2 sequence: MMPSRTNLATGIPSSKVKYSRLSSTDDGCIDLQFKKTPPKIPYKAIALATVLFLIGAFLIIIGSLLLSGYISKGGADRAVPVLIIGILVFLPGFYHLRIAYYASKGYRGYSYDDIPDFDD
# [2] = target: T3, HA-TMEM230 (WT, lentiviral) (human) (UniProt Q96A57); assay: as above
# T3 sequence: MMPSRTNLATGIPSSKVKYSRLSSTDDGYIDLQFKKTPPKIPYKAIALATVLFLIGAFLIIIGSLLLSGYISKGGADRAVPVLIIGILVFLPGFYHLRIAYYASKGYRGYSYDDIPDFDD
# [3] = target: TMEM9-HA (lentiviral, iNeurons) (human) (UniProt Q9P0T7); assay: affinity purification with mass spectrometry; anti-HA immunoprecipitations from TMEM9-/- iNeurons (day 21) with or without lentiviral expression of TMEM9-HA, four biological replicates; 0.5% DDM extraction; TMT-MS
binder,measurement,setting,value
B1,binding,[1],binds
same,binding,HA-TMEM230(Y29C) (human),binds
same,binding,[2],binds
B2,binding,[1],binds
same,binding,HA-TMEM230(Y29C) (human),binds
same,binding,[2],binds
B3,binding,[1],binds
same,binding,HA-TMEM230(Y29C) (human),binds
same,binding,[2],binds
B4,binding,[1],binds
same,binding,HA-TMEM230(Y29C) (human),binds
same,binding,[2],binds
B5,binding,[3],binds
B6,binding,[3],binds
